Five molecules from article PMC8611983 can be followed below.

Chains of the proteins cited; added tags and fusions are not shown. Lines headed by an entry give the natural chain unless they say otherwise; changes in a name come on top.
UniProt Q8C796: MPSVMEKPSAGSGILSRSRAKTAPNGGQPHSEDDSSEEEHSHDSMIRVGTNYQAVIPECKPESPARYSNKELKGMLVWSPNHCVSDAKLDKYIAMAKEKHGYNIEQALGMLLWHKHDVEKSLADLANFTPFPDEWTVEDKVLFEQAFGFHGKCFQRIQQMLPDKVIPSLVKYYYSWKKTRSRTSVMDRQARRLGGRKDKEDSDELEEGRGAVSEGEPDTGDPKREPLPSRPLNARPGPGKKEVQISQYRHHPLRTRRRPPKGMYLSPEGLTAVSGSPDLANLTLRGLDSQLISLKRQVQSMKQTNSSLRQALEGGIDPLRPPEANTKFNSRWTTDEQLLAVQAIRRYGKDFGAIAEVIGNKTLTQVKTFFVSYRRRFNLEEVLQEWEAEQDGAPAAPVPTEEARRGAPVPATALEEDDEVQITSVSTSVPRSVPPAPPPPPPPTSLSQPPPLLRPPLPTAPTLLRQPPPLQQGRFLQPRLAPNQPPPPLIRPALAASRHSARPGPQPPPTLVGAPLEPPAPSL
UniProt Q8IZ40: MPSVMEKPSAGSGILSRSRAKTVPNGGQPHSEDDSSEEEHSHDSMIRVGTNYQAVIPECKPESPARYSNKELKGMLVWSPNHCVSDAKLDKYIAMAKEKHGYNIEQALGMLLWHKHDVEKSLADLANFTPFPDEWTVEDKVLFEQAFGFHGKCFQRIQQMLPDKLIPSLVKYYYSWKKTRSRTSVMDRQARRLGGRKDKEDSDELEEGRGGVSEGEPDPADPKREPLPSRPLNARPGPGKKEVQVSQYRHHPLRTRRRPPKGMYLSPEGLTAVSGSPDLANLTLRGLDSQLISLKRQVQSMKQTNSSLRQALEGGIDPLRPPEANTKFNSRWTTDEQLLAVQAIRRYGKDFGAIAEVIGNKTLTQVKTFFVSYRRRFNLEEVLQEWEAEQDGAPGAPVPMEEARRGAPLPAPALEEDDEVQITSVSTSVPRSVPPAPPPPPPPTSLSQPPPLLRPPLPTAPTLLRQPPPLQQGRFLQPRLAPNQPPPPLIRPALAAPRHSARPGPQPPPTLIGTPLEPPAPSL
UniProt Q61686: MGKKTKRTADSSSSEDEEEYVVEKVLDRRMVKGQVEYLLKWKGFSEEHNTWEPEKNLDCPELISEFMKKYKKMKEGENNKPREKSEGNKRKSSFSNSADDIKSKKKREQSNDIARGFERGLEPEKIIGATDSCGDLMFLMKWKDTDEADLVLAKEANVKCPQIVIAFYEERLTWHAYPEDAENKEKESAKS
UniProt Q9QX47: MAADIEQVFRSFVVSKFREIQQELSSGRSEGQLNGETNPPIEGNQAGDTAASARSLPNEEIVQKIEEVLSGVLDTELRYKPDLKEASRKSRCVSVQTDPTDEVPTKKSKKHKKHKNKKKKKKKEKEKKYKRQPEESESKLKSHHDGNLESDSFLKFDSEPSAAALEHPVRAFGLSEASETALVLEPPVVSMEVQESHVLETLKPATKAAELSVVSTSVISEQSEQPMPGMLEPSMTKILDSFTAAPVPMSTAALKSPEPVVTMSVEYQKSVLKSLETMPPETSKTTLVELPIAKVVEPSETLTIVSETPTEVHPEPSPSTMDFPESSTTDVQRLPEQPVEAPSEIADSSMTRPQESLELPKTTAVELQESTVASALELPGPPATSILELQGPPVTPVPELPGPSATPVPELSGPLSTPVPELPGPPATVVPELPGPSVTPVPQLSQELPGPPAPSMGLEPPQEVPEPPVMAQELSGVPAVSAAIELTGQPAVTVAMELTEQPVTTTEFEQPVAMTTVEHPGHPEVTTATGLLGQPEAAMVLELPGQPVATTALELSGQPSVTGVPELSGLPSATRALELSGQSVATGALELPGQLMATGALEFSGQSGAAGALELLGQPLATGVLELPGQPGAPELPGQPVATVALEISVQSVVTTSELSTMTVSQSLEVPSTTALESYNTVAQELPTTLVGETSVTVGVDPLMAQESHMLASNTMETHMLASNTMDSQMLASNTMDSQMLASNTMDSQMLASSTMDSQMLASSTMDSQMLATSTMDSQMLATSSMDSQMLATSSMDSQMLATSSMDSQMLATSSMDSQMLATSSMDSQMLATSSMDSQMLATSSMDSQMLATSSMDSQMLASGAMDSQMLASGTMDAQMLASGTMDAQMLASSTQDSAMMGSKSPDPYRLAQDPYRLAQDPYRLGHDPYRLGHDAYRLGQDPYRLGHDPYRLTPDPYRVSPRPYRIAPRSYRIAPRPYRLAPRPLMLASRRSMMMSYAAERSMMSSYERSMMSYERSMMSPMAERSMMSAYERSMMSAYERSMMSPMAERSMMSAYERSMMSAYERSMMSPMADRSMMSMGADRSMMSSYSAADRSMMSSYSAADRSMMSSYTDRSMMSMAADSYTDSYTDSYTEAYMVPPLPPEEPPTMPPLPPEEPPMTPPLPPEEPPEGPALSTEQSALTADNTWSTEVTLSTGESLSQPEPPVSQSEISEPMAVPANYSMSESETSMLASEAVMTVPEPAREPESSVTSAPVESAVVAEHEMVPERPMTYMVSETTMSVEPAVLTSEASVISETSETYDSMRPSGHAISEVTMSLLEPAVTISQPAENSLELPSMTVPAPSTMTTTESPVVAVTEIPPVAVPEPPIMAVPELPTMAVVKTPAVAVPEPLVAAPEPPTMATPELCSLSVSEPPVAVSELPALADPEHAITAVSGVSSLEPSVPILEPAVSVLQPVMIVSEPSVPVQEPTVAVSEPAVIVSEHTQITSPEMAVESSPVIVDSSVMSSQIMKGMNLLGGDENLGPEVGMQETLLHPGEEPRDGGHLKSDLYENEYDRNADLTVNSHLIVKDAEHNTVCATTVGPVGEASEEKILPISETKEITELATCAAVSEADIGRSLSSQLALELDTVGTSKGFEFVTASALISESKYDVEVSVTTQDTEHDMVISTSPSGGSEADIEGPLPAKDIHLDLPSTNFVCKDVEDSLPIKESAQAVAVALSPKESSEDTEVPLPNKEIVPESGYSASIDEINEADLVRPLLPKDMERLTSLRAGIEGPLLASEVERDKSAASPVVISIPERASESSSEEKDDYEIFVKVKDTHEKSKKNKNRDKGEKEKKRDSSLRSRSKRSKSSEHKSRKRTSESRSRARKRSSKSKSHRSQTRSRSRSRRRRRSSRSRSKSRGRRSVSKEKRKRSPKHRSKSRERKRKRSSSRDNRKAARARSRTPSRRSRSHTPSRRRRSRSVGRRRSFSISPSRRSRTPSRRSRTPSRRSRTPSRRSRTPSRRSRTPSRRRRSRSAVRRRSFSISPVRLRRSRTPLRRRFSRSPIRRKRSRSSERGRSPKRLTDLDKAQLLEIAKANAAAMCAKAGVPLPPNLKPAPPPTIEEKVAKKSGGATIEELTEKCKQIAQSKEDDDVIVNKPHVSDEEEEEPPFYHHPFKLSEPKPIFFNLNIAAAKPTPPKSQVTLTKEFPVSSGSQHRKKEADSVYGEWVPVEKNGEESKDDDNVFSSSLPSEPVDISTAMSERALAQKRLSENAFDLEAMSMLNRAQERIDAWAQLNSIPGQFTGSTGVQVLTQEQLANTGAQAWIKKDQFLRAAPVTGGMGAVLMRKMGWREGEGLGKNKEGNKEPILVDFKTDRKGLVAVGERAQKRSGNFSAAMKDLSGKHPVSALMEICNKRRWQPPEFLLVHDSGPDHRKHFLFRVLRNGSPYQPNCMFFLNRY
UniProt Q8BTI8: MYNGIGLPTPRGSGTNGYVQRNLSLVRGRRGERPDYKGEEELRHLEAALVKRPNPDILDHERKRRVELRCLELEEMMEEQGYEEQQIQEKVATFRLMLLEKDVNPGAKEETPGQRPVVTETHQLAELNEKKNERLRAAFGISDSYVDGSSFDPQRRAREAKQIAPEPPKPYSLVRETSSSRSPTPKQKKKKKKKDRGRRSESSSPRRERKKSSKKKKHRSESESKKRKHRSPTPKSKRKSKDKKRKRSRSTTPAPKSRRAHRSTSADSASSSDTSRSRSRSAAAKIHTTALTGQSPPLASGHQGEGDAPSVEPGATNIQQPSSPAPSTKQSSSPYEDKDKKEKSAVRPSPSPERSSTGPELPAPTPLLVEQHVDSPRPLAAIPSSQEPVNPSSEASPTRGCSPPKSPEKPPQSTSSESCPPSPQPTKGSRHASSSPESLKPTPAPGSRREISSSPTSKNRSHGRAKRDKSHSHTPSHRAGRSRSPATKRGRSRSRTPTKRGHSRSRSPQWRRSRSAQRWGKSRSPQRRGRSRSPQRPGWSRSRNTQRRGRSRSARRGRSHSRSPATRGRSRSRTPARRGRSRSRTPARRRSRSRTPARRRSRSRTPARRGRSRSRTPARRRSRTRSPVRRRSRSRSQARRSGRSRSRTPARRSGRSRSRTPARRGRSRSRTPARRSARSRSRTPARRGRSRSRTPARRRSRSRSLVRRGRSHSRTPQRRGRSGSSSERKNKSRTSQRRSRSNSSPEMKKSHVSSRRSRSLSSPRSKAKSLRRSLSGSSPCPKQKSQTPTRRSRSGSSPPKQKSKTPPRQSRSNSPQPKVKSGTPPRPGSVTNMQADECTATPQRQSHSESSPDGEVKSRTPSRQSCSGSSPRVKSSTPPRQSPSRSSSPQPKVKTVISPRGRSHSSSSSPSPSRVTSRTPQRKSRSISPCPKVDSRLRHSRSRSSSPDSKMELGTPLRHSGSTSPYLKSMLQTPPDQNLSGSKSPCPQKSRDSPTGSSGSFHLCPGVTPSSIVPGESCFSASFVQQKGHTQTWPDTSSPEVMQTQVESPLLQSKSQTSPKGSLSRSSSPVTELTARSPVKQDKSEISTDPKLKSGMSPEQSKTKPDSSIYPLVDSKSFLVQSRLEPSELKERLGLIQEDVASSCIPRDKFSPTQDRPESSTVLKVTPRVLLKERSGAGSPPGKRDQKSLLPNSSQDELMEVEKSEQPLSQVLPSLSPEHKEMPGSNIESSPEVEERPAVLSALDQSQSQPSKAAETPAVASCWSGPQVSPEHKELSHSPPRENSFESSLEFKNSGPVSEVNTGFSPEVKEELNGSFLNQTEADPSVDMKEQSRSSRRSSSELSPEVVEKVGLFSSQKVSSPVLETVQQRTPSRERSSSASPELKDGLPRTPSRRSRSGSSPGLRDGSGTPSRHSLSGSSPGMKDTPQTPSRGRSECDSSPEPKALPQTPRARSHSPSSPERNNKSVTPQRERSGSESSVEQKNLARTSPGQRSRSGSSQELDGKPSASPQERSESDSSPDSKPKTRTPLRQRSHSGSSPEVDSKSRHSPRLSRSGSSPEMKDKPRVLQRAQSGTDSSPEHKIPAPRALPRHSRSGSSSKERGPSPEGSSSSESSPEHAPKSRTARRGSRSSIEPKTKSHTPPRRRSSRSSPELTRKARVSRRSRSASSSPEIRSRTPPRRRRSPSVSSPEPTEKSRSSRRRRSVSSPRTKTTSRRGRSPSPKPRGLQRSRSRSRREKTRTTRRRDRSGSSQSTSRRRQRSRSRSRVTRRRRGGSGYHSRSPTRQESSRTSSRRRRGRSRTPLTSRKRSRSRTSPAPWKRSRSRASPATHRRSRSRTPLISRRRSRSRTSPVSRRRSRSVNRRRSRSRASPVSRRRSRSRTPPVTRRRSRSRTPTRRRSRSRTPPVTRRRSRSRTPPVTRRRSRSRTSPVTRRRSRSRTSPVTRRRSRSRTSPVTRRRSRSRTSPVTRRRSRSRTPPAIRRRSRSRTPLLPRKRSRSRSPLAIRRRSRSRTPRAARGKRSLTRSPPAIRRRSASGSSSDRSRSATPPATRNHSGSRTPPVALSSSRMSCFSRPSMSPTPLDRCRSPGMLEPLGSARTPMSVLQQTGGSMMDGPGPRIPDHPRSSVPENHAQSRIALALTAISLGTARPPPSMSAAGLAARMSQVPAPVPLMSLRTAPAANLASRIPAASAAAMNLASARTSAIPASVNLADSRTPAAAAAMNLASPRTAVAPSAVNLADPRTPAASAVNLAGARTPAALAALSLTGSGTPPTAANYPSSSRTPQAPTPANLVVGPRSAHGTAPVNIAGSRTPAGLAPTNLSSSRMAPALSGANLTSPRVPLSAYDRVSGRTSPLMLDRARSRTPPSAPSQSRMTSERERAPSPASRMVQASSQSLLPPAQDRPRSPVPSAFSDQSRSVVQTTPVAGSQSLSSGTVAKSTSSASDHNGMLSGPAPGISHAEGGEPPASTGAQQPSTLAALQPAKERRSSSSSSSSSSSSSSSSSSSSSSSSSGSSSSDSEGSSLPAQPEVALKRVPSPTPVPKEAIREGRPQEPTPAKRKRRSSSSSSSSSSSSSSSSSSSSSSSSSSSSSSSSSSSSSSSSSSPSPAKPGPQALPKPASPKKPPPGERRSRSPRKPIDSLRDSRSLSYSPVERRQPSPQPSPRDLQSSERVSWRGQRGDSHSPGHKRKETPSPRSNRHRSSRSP

These are yes or no findings as the source states them, for the method shown. In cells and extracts the contact can be indirect. Some results given as binding are weak or reduced against the parent protein; the word gives no strength.

Experiment [1] has as its target REST corepressor 2 (RCOR2) (mouse (endogenous in HT22 and N2A)) (UniProt Q8C796). The experiment can be described thus: co-IP; anti-RCOR2 antibody immunoprecipitation from nuclear soluble fractions enriched in RCOR2 (HT22 fractionation); IgG as specificity control; Western blot.
For experiment [2] the target is unchanged. Put plainly: co-IP; anti-RCOR2 antibody immunoprecipitation from N2A total cell extract; 50 mM Tris-HCl pH 7.5, 150 mM NaCl, 0.5% sodium deoxycholate, 1% NP40, sonicated; IgG control; Western blot.
Experiment [3] shares this target. The experiment can be described thus: co-IP; anti-RCOR2 antibody immunoprecipitation from HT22 total cell extract; 50 mM Tris-HCl pH 7.5, 150 mM NaCl, 0.5% sodium deoxycholate, 1% NP40, sonicated; IgG control; Western blot. (Immunoblotting shows a protein as a band on a membrane.)
The target of experiment [4] is REST corepressor 2 (RCOR2) (human (endogenous in HEK293T)) (UniProt Q8IZ40). The experiment can be described thus: co-IP; RCOR2 immunoprecipitation with HEK293T cells as input; 50 mM Tris-HCl pH 7.5, 150 mM NaCl, 0.5% sodium deoxycholate, 1% NP40, sonicated; Western blot.

With “Heterochromatin protein 1α (from UniProt Q61686 1-191)”, in experiment [1], the binding result was “no binding”.
The same measure, in the same setting: the entry for SON (from UniProt Q9QX47 1-2444) is “binds”.
In the case of “serine arginine repetitive matrix protein 2 (SRRM2) (from UniProt Q8BTI8 1-2703)”, the binding result in experiment [2] was “binds”.

B1: serine and arginine splicing factor 7 (SRSF7) (protein, UniProt Q8BL97 1-267)
chain: MRSSARGRPLQAATAFFLSLFFFLRRFERGFWLWGGDSETKVYVGNLGTGAGKGELERAFSYYGPLRTVWIARNPPGFAFVEFEDPRDAEDAVRGLDGKVICGSRVRVELSTGMPRRSRFDRPPARRPFDPNDRCYECGEKGHYAYDCHRYSRRRRSRSRSRSHSRSRGRRYSRSRSRSRGRRSRSASPRRSRSVSLRRSRSASLRRSRSGSIIGSRYFQSRSRSRSRSRSISRPRSSRSKSRSPSPKRSRSPSGSPHRSASPERMD
Regarding B1, the binding entry in experiment [3] was “binds”.

B2: serine and arginine splicing factor 7 (SRSF7) (protein, UniProt Q16629 1-238)
chain: MSRYGRYGGETKVYVGNLGTGAGKGELERAFSYYGPLRTVWIARNPPGFAFVEFEDPRDAEDAVRGLDGKVICGSRVRVELSTGMPRRSRFDRPPARRPFDPNDRCYECGEKGHYAYDCHRYSRRRRSRSRSRSHSRSRGRRYSRSRSRSRGRRSRSASPRRSRSISLRRSRSASLRRSRSGSIKGSRYFQSPSRSRSRSRSISRPRSSRSKSRSPSPKRSRSPSGSPRRSASPERMD
In the case of B2, the binding entry in experiment [4] was “binds”.
